From patent US20250101063A1, “POLYPEPTIDE COMPOUND AND USE THEREOF IN TREATMENT OF ENTERITIS” (Sichuan Gooddoctor Panxi Pharmaceutical Co., Ltd., priority 2022, published 2025)
Some entries share one result that the patent states for a list of compounds. Where no end group is shown, it is not given here. [ ]: non-standard residue; d: D form. pGlu = O=C1CC[C@@H](C(=O)O)N1

System: zebrafish model of intestinal mucosal injury
Test: Efficacy in relieving colitis: intestinal lumen area in TNBS-treated zebrafish
Format: in vivo
Settings: 1000 μg/mL; summary of Tables 4 and 5
Description: Experimental animals: Wild-type AB strain zebrafishes, bred by natural pair mating. Zebrafishes aged 3 days post fertilization (3 dpf). Zebrafishes were kept in fish farming water at 28° C. (water quality: 200 mg of instant sea salt in each 1L of reverse osmosis water, with the conductivity of 450-550 μS/cm; pH of 6.5-8.5; and hardness of 50-100 mg/L CaCO3), the experimental animal use license number is: SYXK (Zhe) 2012-0171, and the breeding management met the requirements of the international AAALAC certification (certification number: 001458).
(1) Grouping: Polypeptide group: prepared into a stock solution of 20.0 mg/mL with ultrapure water and stored at −20° C.
Positive control group: prednisone, as white powder, with batch number C10016501, Shanghai Macklin Biochemical Technology Co., Ltd., stored at 4° C.; prepared into a 15.0 mg/mL stock solution with DMSO, and stored in aliquots at −20° C.
Normal control group and model control group.
(2) Experimental method: 3 dpf wild-type AB strain zebrafishes were randomly selected and placed in a 6-well plate, with 30 zebrafishes in each well (experimental group). Except for the normal control group, all other experimental groups were given TNBS in water to establish the zebrafish model of intestinal mucosal injury. After 2 days of treatment at 28° C., TNBS was removed, and polypeptide compound in water (at concentrations shown in Table 4) was given respectively, and for the positive control, prednisone was 15.0 μg/mL. A normal control group (healthy group) and a model control group (intestinal mucosal injury group) were set up at the same time. The capacity of each well (experimental group) was 3 mL. After 2 days of treatment at 28° C., 10 zebrafishes were randomly selected from each experimental group and photographed under a dissecting microscope. NIS-Elements D 3.20 advanced image processing software was used to analyze and collect data, and the intestinal lumen area of the zebrafish was analyzed. The statistical analysis results of this indicator were used to evaluate the efficacy of the samples in relieving colitis. The statistics results were expressed as mean±SE. SPSS26.0 software was used for statistical analysis, and p<0.05 indicates statistically significant difference.
The concentration gradient of the test substances set in this experimental system was 250 μg/mL, 500 μg/mL, and 1000 μg/mL. […] When the concentration of the test substance was further increased for intervention, the death phenomenon of zebrafishes was found in the group; therefore, in the subsequent rounds of activity evaluation, each test polypeptide compound was uniformly administered at 1000 μg/mL for intervention.

VPYKEPVPQAKPRKVAAQ [Compound 88]
Effect of alleviating colitis, manifested by relieving intestinal lumen dilatation (in words): significant effect of alleviating colitis

RKDVYPVPQ [Compound 94]
Effect of alleviating colitis, manifested by relieving intestinal lumen dilatation (in words): significant effect of alleviating colitis

GPETAFLRKEPVPQAKPRKVAAQ [Compound 95]
Effect of alleviating colitis, manifested by relieving intestinal lumen dilatation (in words): significant effect of alleviating colitis

KQPVPQAKPRKVAAQ [Compound 105]
Effect of alleviating colitis, manifested by relieving intestinal lumen dilatation (in words): significant effect of alleviating colitis

EP[dV]PQAK [Compound 80]
Effect of alleviating colitis, manifested by relieving intestinal lumen dilatation (in words): certain effect of alleviating intestinal lumen dilatation

KEPVPAAKPRKVAAQ [Compound 23]
Effect of alleviating colitis, manifested by relieving intestinal lumen dilatation (in words): certain effect of alleviating intestinal lumen dilatation

KEPVPQAKPRKAAAQ [Compound 29]
Effect of alleviating colitis, manifested by relieving intestinal lumen dilatation (in words): significant effect of alleviating colitis

PRKVAAQ [Compound 5]
Effect of alleviating colitis, manifested by relieving intestinal lumen dilatation (in words): significant effect of alleviating colitis

KEPAPQAKPRKVAAQ [Compound 25]
Effect of alleviating colitis, manifested by relieving intestinal lumen dilatation (in words): significant effect of alleviating colitis

EPVPAAK [Compound 47]
Effect of alleviating colitis, manifested by relieving intestinal lumen dilatation (in words): certain effect of alleviating intestinal lumen dilatation

KEAVPQAKPRKVAAQ [Compound 21]
Effect of alleviating colitis, manifested by relieving intestinal lumen dilatation (in words): certain effect of alleviating intestinal lumen dilatation

EPVPEAK [Compound 55]
Effect of alleviating colitis, manifested by relieving intestinal lumen dilatation (in words): significant effect of alleviating colitis

NPVPQAK [Compound 50]
Effect of alleviating colitis, manifested by relieving intestinal lumen dilatation (in words): significant effect of alleviating colitis

[pGlu]LKEPVPQAKPRKVAAQ [Compound 89]
Effect of alleviating colitis, manifested by relieving intestinal lumen dilatation (in words): significant effect of alleviating colitis

KEPVPQ[dA]KPRKVAAQ [Compound 67]
Effect of alleviating colitis, manifested by relieving intestinal lumen dilatation (in words): significant effect of alleviating colitis

RKDVYKEPVPQAK [Compound 92]
Effect of alleviating colitis, manifested by relieving intestinal lumen dilatation (in words): significant effect of alleviating colitis

KEPVPQAKPRKVAA[dQ] [Compound 75]
Effect of alleviating colitis, manifested by relieving intestinal lumen dilatation (in words): significant effect of alleviating colitis

PAYKEPVPQAKPRKVAAQ [Compound 90]
Effect of alleviating colitis, manifested by relieving intestinal lumen dilatation (in words): significant effect of alleviating colitis

EPVPQAKPR [Compound 57]
Effect of alleviating colitis, manifested by relieving intestinal lumen dilatation (in words): significant effect of alleviating colitis

Glu-Pro-Val-Pro-Gln (EPVPQ; printed: Glu-Pro-Val-Pro-Gln) [Compound 86]
Effect of alleviating colitis, manifested by relieving intestinal lumen dilatation (in words): significant effect of alleviating colitis

KEPVPQAKPR[dK]VAAQ [Compound 71]
Effect of alleviating colitis, manifested by relieving intestinal lumen dilatation (in words): certain effect of alleviating intestinal lumen dilatation

EPVPQAKPRK [Compound 38]
Effect of alleviating colitis, manifested by relieving intestinal lumen dilatation (in words): significant effect of alleviating colitis

KEPVPQAKPRKVA[dA]Q [Compound 74]
Effect of alleviating colitis, manifested by relieving intestinal lumen dilatation (in words): certain effect of alleviating intestinal lumen dilatation

EPVPQAKP [Compound 58]
Effect of alleviating colitis, manifested by relieving intestinal lumen dilatation (in words): certain effect of alleviating intestinal lumen dilatation

EPVPQAKPRKVA [Compound 51]
Effect of alleviating colitis, manifested by relieving intestinal lumen dilatation (in words): significant effect of alleviating colitis

Pro-Val-Pro-Glu-Ala (PVPEA; printed: Pro-Val-Pro-Glu-Ala) [Compound 40]
Effect of alleviating colitis, manifested by relieving intestinal lumen dilatation (in words): certain effect of alleviating intestinal lumen dilatation

KE[dP]VPQAKPRKVAAQ [Compound 63]
Effect of alleviating colitis, manifested by relieving intestinal lumen dilatation (in words): significant effect of alleviating colitis
